Record: PubChem BioAssay AID504744 (Drosophila RNAi Screening Center, 2011)
Screen: 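Find genes whose loss alters insulin-driven dAkt phosphorylation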 (primary screen). Cell system: Drosophila Kc167 cells. Reagents: long dsRNA against Drosophila genes, 250 ng dsRNA per well of a 384-well plate. Time to read-out: 3 days of knock-down, then overnight serum-free starvation before stimulation. Treatment: bovine insulin at 387 nM for 10 minutes after 12 h without serum. Measured: 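Per-well phospho-dAkt level from an in-cell fluorescent antibody stain, divided by a DNA-dye signal; log2 residuals turned into z-scores that take cell number into account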. Hit rule: 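Under insulin, a gene counts as a hit if the average z-score of two replicates lies above 2.5 or below -2.5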.
The deposit covers about 23,000 reagents; this is a random part of those that have a named target and a result. Over the whole deposit, 98 (0.43%) got an active call. 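Only hit calls are given; the phospho-dAkt signals, z-scores and hit direction were not deposited.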 A plus sign joins genes that one reagent is predicted to hit.

no.	gene	DRSC id	outcome
1	Muc12Ea	DRSC19937	inactive
2	Nepl9	DRSC02255	inactive
3	Mi-2	DRSC11222	inactive
4	kek5	DRSC19438	inactive
5	CheA86a	DRSC12839	inactive
6	CG44251	DRSC06856	inactive
7	rswl	DRSC06923	inactive
8	CG3061	DRSC15460	inactive
9	Eno	DRSC00750	inactive
10	CG3744	DRSC15511	inactive
11	Nup62	DRSC06970	inactive
12	CG5989	DRSC10565	inactive
13	CG17959	DRSC18142	inactive
14	CG4238	DRSC00090	inactive
15	CG4238	DRSC00644	inactive
16	CG15125	DRSC06547	inactive
17	CG12662	DRSC17865	inactive
18	hmw	DRSC16277	inactive
19	CG31525	DRSC12004	inactive
20	CG13305	DRSC09975	inactive
21	HSPC300	DRSC22880	inactive
22	CG43338	DRSC22055	inactive
23	Daao2	DRSC02135	inactive
24	CG5276	DRSC15759	inactive
25	Polr2C	DRSC03415	inactive
26	MME1	DRSC02714	inactive
27	Bro	DRSC08149	inactive
28	CG13293	DRSC09967	inactive
29	CG15345 (retired record)	DRSC18030	inactive
30	CG15345 (retired record)	DRSC22712	inactive
31	CG15082	DRSC06513	inactive
32	Pvf1	DRSC20024	inactive
33	wts	DRSC17096	inactive
34	Tmep	DRSC08215	inactive
35	Grp170	DRSC18524	inactive
36	CG31642	DRSC02919	inactive
37	CG1636	DRSC18111	inactive
38	CG31016	DRSC21359	inactive
39	Hyccin	DRSC06983	inactive
40	kmr	DRSC12986	inactive
41	kmr	DRSC14827	inactive
42	kmr	DRSC14828	inactive
43	kmr	DRSC16472	inactive
44	CG15646	DRSC19682	inactive
45	CG13457	DRSC10004	inactive
46	qkr54B	DRSC07670	inactive
47	gem	DRSC06093	inactive
48	gem	DRSC06847	inactive
49	spin	DRSC07176	inactive
50	spin	DRSC22271	inactive
51	CG14262	DRSC14757	inactive
52	Esyt2	DRSC16082	inactive
53	CG5946	DRSC10560	inactive
54	Exo70	DRSC10774	inactive
55	PhKgamma	DRSC20268	inactive
56	Scp2	DRSC13166	inactive
57	Scp2	DRSC16854	inactive
58	CG17109	DRSC15172	inactive
59	CG8834	DRSC07283	inactive
60	CG11878	DRSC14422	inactive
61	vig2	DRSC14402	inactive
62	Cht6	DRSC18001	inactive
63	Cht6	DRSC18002	inactive
64	Cht6	DRSC18253	inactive
65	His-Psi:CR31754	DRSC22051	inactive
66	CG30380	DRSC05069	inactive
67	Non1	DRSC05954	inactive
68	Or22a	DRSC00764	inactive
69	CG34159	DRSC02885	inactive
70	CG17404	DRSC15234	inactive
71	olf186-M	DRSC07657	inactive
72	CG42703	DRSC03973	inactive
73	nxf2	DRSC10403	inactive
74	dpr18	DRSC19606	inactive
75	CG34370	DRSC03913	inactive
76	CG34370	DRSC04142	inactive
77	CG34370	DRSC04143	inactive
78	CG34370	DRSC04144	inactive
79	hdly	DRSC15849	inactive
80	Agxt	DRSC18718	inactive
81	mura	DRSC16483	inactive
82	mura	DRSC16484	inactive
83	CG42245 + MEP-1	DRSC07993	inactive
84	CG42245 + MEP-1	DRSC08274	inactive
85	CG42245 + MEP-1	DRSC21460	inactive
86	CG13438	DRSC06398	inactive
87	CG30058 + CG34235 + CG34312	DRSC05401	inactive
88	ovm + CG31975	DRSC22146	inactive
89	GNBP2	DRSC10404	inactive
90	CG16758	DRSC07984	inactive
91	CG16758	DRSC08492	inactive
92	CG2993	DRSC14284	inactive
93	CG2993	DRSC15457	inactive
94	CG4593	DRSC18374	inactive
95	Cpr65Av	DRSC09727	inactive
96	CG42674	DRSC10066	inactive
97	CG42674	DRSC10067	inactive
98	CG42674	DRSC10811	inactive
99	eEF1beta	DRSC07419	inactive
100	Mis12	DRSC10299	inactive
101	klu	DRSC11357	inactive
102	upd2	DRSC19969	inactive
103	VhaAC45	DRSC07058	inactive
104	Klp98A	DRSC16724	inactive
105	Klp98A	DRSC21834	inactive
106	DIP-gamma	DRSC14873	inactive
107	CG11593	DRSC08206	inactive
108	CG13308	DRSC09979	inactive
109	Sac1	DRSC08622	inactive
110	CG2225	DRSC03722	inactive
111	CG2225	DRSC03723	inactive
112	Sdb	DRSC06272	inactive
113	Sdb	DRSC06273	inactive
114	Sdb	DRSC07155	inactive
115	RpS28b	DRSC18258	inactive
116	Ogg1	DRSC17738	inactive
117	CG42680	DRSC01399	inactive
118	CG33221 (retired record)	DRSC21201	inactive
119	rno	DRSC08584	inactive
120	nsr	DRSC04427	inactive
121	nsr	DRSC22806	inactive
122	byn	DRSC11332	inactive
123	a6	DRSC18733	inactive
124	mtSSB	DRSC17005	inactive
125	Mur89F	DRSC15544	inactive
126	CG8945	DRSC20129	inactive
127	CG8945	DRSC20130	inactive
128	CG1571	DRSC18068	inactive
129	CG15711	DRSC06582	inactive
130	CG4661	DRSC19910	inactive
131	PGRP-LA	DRSC10327	inactive
132	PGRP-LA	DRSC10414	inactive
133	Cpr97Eb	DRSC15123	inactive
134	beg	DRSC10923	inactive
135	glo	DRSC16145	inactive
136	SPARC	DRSC14123	inactive
137	Gpa2	DRSC21071	inactive
138	CG12446	DRSC20618	inactive
139	Fit2	DRSC10908	inactive
140	CG7715	DRSC16301	inactive
141	beta-PheRS	DRSC15859	inactive
142	GPHR	DRSC07075	inactive
143	CG7914	DRSC20068	inactive
144	slmo + CG34179	DRSC03143	inactive
145	Rtc1	DRSC20285	inactive
146	CG31174	DRSC13518	inactive
147	CG8191	DRSC20091	inactive
148	CG2260	DRSC18223	inactive
149	CG30031 + deltaTry + CG30025 + 1 more	DRSC21262	inactive
150	CG9826	DRSC04570	inactive
151	Ilk	DRSC11868	inactive
152	TwdlO	DRSC16043	inactive
153	CG1208	DRSC12190	inactive
154	CG32590	DRSC19594	inactive
155	GluRIIB	DRSC03335	inactive
156	PGRP-SC1a	DRSC06482	inactive
157	Adk2	DRSC09827	inactive

27 successive reagents already listed, quoted:
no.	gene	DRSC id	outcome
110	CG2225	DRSC03722	inactive
111	CG2225	DRSC03723	inactive
112	Sdb	DRSC06272	inactive
113	Sdb	DRSC06273	inactive
114	Sdb	DRSC07155	inactive
115	RpS28b	DRSC18258	inactive
116	Ogg1	DRSC17738	inactive
117	CG42680	DRSC01399	inactive
118	CG33221 (retired record)	DRSC21201	inactive
119	rno	DRSC08584	inactive
120	nsr	DRSC04427	inactive
121	nsr	DRSC22806	inactive
122	byn	DRSC11332	inactive
123	a6	DRSC18733	inactive
124	mtSSB	DRSC17005	inactive
125	Mur89F	DRSC15544	inactive
126	CG8945	DRSC20129	inactive
127	CG8945	DRSC20130	inactive
128	CG1571	DRSC18068	inactive
129	CG15711	DRSC06582	inactive
130	CG4661	DRSC19910	inactive
131	PGRP-LA	DRSC10327	inactive
132	PGRP-LA	DRSC10414	inactive
133	Cpr97Eb	DRSC15123	inactive
134	beg	DRSC10923	inactive
135	glo	DRSC16145	inactive
136	SPARC	DRSC14123	inactive
